Article PMC5370144
Results are given in words; binding and its absence hold for the method and conditions named. Binding seen in cells or lysates may run through a third protein. Some results given as binding are weak or reduced against the parent protein; the word gives no strength.

Protein sequences, listed by entry. Tags and fused reporters are not part of them.
UniProt O55242: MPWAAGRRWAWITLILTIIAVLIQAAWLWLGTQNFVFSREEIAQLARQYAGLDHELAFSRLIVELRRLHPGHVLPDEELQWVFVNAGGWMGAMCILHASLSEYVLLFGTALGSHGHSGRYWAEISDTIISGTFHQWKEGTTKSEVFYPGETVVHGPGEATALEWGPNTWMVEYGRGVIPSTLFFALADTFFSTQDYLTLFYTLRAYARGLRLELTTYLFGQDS

Experiments:
[1] = biological target: HA-tagged original mouse sigma1 receptor mSIG-1 (mouse) (UniProt O55242); test: co-IP; HEK293 cells transiently co-transfected with mMOR-1/Flag and an HA-tagged Sigmar1 variant; whole cells solubilised in PBS pH 7.4, 3 mM CHAPS; IP with EZview Red Anti-HA affinity gel overnight at 4°C, elution with HA peptide, immunoblot with anti-Flag
[2] = biological target: HA-tagged original mouse sigma1 receptor mSIG-1 (mouse) (UniProt O55242); test: co-IP; competition co-IP: equal amounts of mSIG-1/HA (1.2 μg) and mMOR-1/Flag (1.2 μg) co-transfected in HEK293 with 0, 1.2, 2.4 or 3.6 μg of an untagged Sigmar1 variant; IP with EZview HA affinity gel, immunoblot with anti-Flag

binding [1]: binds
binding [2]: binds
Substance: Flag-tagged mouse mu opioid receptor variant mMOR-1 (from UniProt P42866 1-398)
